Results as given in PubChem BioAssay (NCATS).
The source calls these results inconclusive, neither active nor inactive. Calls come from the whole dose curve; as a rule, active = well fitted curve in the direction sought with a large enough effect; inconclusive = small, poorly fitted or top-dose-only effect, or another doubt; inactive = no such curve, though single readings can be large; an effect the other way counts as inactive or inconclusive.

Sequences of proteins named here, by UniProt entry; tags and fusion partners are left off.
UniProt P04637, whole entry: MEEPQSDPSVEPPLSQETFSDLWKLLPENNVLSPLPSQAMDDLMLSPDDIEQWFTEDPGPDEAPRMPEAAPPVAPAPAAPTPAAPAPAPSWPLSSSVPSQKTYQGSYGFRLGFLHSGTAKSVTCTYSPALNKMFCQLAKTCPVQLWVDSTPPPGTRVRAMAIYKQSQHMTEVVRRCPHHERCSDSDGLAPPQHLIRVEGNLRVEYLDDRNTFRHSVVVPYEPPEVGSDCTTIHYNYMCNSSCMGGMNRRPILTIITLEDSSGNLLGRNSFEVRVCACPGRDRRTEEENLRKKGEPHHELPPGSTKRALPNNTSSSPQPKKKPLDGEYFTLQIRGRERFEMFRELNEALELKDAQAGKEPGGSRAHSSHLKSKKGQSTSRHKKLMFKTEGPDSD

How the values were obtained:
[1] = target: Cellular tumor antigen p53 (Homo sapiens) (UniProt P04637); test: Primary qHTS for small molecule compounds that upregulate eGFP-tagged delta133p53alpha (in N-terminal) cells. (AID 2060322); details: NCI-H358 eGFP-delta133p53alpha fluorescence, 24 h; note: nearly all actives have a fitted effect of over 75% in size
[2] = BET inhibitor-based combinations targeting novel dependencies in MECOM-rearranged (r) AML: SET-2 cell line (AID 2202231); details: SET-2 AML cells viability, CellTiter-Glo luminescence, 48 h; note: nearly all actives have a fitted effect of over 35% in size
From the text: (§1) Ecotropic viral insertion site 1 (EVI1) is located on chromosome 3q26.2 as part of the MECOM (MDS and EVI1 complex) locus. Under normal hematopoiesis, EVI1 is a regulator of hematopoietic stem cell maintenance and self-renewal and EVI1 levels decrease as the cells differentiate. In approximately 5-10% of de novo acute myeloid leukemia (AML) EVI1 is aberrantly expressed, including Chromosomal inv(3)(q21;q26.2) or t(3;3)(q21;q26.2) alterations (MECOM-r) that account for about 50% of AML with EVI1 overexpression 31. AMLs with high levels of EVI1 have a poor prognosis and an overall survival time averaging between 10-14 months. EVI1 overexpression confers resistance in leukemia cells, highlighting the need to develop new targeted therapies for EVI1 overexpressing AMLs. […]
(§2) A collection of 2480 mechanistically annotated dugs (MIPE v5.0) was used to screen four 3q26.2 rearranged AML cell lines and three non-3q26.2 rearranged AML cell lines. […] Cell viability was determined by luminescence based, Cell Titer Glo assay (Promega). […] Luminescence readings were taken using a Viewlux (PerkinElmer) with a 2 s exposure time per plate. […] Quantitative drug activity data from dose-response curves was determined utilizing area Under the Curve (AUC) and Z-transformed AUC (Z-AUC, a mean-centering transformation applied to each individual cell-line screened).

[3] = BET inhibitor-based combinations targeting novel dependencies in MECOM-rearranged (r) AML: AML-194 cell line (AID 2202237; note: nearly all actives have a fitted effect of over 40% in size); details: AML-194 (MECOM-r AML) viability, CellTiter-Glo, 48 h
From the text: as §1, §2
Potency is the fitted concentration of half-maximal effect.

SMILES	Potency [1]	Potency [2]	Potency [3]
CN(CCCl)CCCl	inconclusive: 38.9 µM	inconclusive: 33.2 µM	inconclusive: 26.3 µM
CCC(=O)N(c1ccccc1)C1(COC)CCN(CCc2cccs2)CC1	inconclusive: 35.5 µM	–	–
